These results are taken from paper PMC9256790 (Molecular cancer therapeutics, 2022).

The subject of this assay is MDA-MB-231. As to the kind of experiment: Cell proliferation. The note with it: Homo sapiens, MDA-MB-231, read-out: Mean IC50 ± SEM. The assay is classed as cell-based.

Usually IC50 stands for the concentration that inhibits the measured activity by half. `CC(=O)O[C@H]1C(=O)[C@@]2(C)[C@H]([C@H](OC(=O)c3ccccc3)[C@]3(O)C[C@H](OC(=O)[C@H](O)[C@@H](NC(=O)c4ccccc4)c4ccccc4)C(C)=C1C3(C)C)[C@]1(OC(C)=O)CO[C@@H]1C[C@@H]2O` [Paclitaxel]: the IC50 turned out to be 0.9 ± 0.1 nM.
